# Laboratory results as given in the supplement of paper PMC4962491.
# “And” between values parts separate entries of the source, which are not always exact repeats. Identical values can stand only once. Counter-ions that a name gives are not always drawn. ± gives the standard deviation of the averaged measurements. The entries are a selection whose mix differs from that of the whole data set. Most values lie within the scatter of the assay; repeated measurements hardly agree.
# System: FaDu
# Assay: mitochondrial oxygen consumption rate normalised to cell number, Z score over the library; higher = higher oxygen consumption (negative = OCR reduction)
# Conditions: treatment time 24 h, assay medium: 5 mM galactose, 5 mM pyruvate, 4 mM glutamine
# Description: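 Primary screen: FaDu cells were incubated 24 h with Pharmakon 1600 / TDI oncology set compounds at 2 or 10 uM. Mitochondrial-specific OCR (basal minus 2 uM antimycin A) was measured on a Seahorse XF96 in assay medium with 5 mM galactose, 5 mM pyruvate and 4 mM glutamine, then corrected for Hoechst cell number and expressed as a Z score […]. Compounds that cut cell number by >66% were excluded. Two repeats.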
SMILES,mitochondrial oxygen consumption rate normalised (2 µM),mitochondrial oxygen consumption rate normalised (10 µM)
CCCCC(=O)OCC(=O)[C@]1(O)Cc2c(O)c3c(c(O)c2[C@@H](O[C@H]2C[C@H](NC(=O)C(F)(F)F)[C@H](O)[C@H](C)O2)C1)C(=O)c1c(OC)cccc1C3=O [valrubicin],1.16 ± 0.57,–
NS(=O)(=O)c1cc2c(cc1Cl)N=C(CSCc1ccccc1)NS2(=O)=O,0.0076 ± 0.69,–
CC(C)[C@@H]1CC[C@@H](C)C[C@H]1O,-1.01 ± 0.56,–
O=C1CC[C@@H](C(=O)O)N1,0.35 ± 0.99,–
C#C[C@]1(O)CC[C@H]2[C@@H]3CCC4=CC(=O)CC[C@@H]4[C@H]3CC[C@@]21C,0.403 ± 0.16,–
CO[C@@]1(NC(=O)C(C(=O)O)c2ccc(O)cc2)C(=O)N2C(C(=O)O)=C(CSc3nnnn3C)CO[C@@H]21 (some centres not stated),0.109 ± 1,–
Nc1ccc(S(=O)(=O)Nc2ncccn2)cc1,-0.52894 ± 0.00041,–
C#C[C@]1(OC(C)=O)CC[C@H]2[C@@H]3CCC4=C[C@@H](OC(C)=O)CC[C@@H]4[C@H]3CC[C@@]21C,0.254 ± 0.057,–
CN(C)CCCN1c2ccccc2CCc2ccc(Cl)cc21,0.598 ± 0.049,–
CO[C@@]1(NC(=O)C2SC(=C(C(N)=O)C(=O)O)S2)C(=O)N2C(C(=O)O)=C(CSc3nnnn3C)CS[C@@H]21 (some centres not stated),-0.428 ± 0.23,–
Cc1cc(NC(=O)C2=C(O)c3ccccc3S(=O)(=O)N2C)no1,0.468 ± 0.54,–
Cc1cc(C(C)(C)CC(C)(C)C)ccc1OCCOCC[N+](C)(C)Cc1ccccc1,-2.98 ± 0.25,–
Nc1ccc(O)c(C(=O)O)c1,0.411 ± 2,–
CCC(=O)O[C@H](CC(=O)O)C[N+](C)(C)C,-0.358 ± 0.49,–
Clc1ccccc1CN1CCc2sccc2C1,-0.215 ± 0.37,–
COC(=O)C1=C(C)NC(C)=C(C(=O)OC)C1c1ccccc1[N+](=O)[O-],0.685 ± 0.12,–
Nc1ncnc2c1ncn2[C@@H]1O[C@H](COP(=O)(O)O)[C@@H](O)[C@H]1O,0.196 ± 0.41,–
CCC(=O)O[C@H]1[C@H](O[C@@H]2[C@@H](C)[C@H](O[C@H]3C[C@@](C)(OC)[C@@H](O)[C@H](C)O3)[C@@H](C)C(=O)O[C@H](CC)[C@@](C)(O)[C@H](O)[C@@H](C)C(=O)[C@H](C)C[C@@]2(C)O)O[C@H](C)C[C@@H]1N(C)C,0.947 ± 0.042,–
NC(=O)c1ncn([C@@H]2O[C@H](CO)[C@@H](O)[C@H]2O)c1N,0.0152 ± 0.32,–
CC(c1cc2ccccc2s1)N(O)C(N)=O (configuration not stated),-0.973 ± 0.61,–
CC(=O)Oc1cc(C(C)C)c(OCCN(C)C)cc1C,-1.14 ± 0.53,-0.219 ± 0.18
O=C(O)c1cc(O)c2c(c1)[C@H]([C@H]1c3cc(C(=O)O)cc(O)c3C(=O)c3c(O[C@@H]4O[C@H](CO)[C@@H](O)[C@H](O)[C@H]4O)cccc31)c1cccc(O[C@@H]3O[C@H](CO)[C@@H](O)[C@H](O)[C@H]3O)c1C2=O,0.963 ± 1.3,0.905 ± 0.018
CNNCc1ccc(C(=O)NC(C)C)cc1,0.067 ± 0.56,0.342 ± 0.2
CNNCc1ccc(C(=O)NC(C)C)cc1 [Procarbazine HCl],1.3 ± 0.2,0.127 ± 0.26
O=c1[nH]c(=O)n([C@H]2C[C@H](O)[C@@H](CO)O2)cc1F [Floxuridine],0.21 ± 0.59,–
O=c1[nH]c(=O)n([C@H]2C[C@H](O)[C@@H](CO)O2)cc1F,-1.01 ± 0.66,–
CN(C)CCC=C1c2ccccc2C=Cc2ccccc21,-0.137 ± 0.42,–
CN(C)CCc1c[nH]c2ccc(C[C@H]3COC(=O)N3)cc12,0.903 ± 0.19,0.529 ± 0.45

SMILES,mitochondrial oxygen consumption rate normalised (2 µM),mitochondrial oxygen consumption rate normalised (10 µM)
NS(=O)(=O)c1cc2c(cc1Cl)NCNS2(=O)=O,-0.974 ± 0.16,–
CC1CCC(NC(=O)N(CCCl)N=O)CC1 (configuration not stated),0.727 ± 2,–
Oc1ccc(O)cc1,0.395 ± 0.35,–
Nc1ccc(S(=O)(=O)Nc2ccc(Cl)nn2)cc1,0.254 ± 0.034,–
Cc1cc2nc3ccc(N(C)C)cc3[s+]c2cc1N,-0.0114 ± 0.47,–
CN(C)CCCOc1nn(Cc2ccccc2)c2ccccc12,-0.169 ± 0.47,–
CC(=O)OCC(=O)[C@@]1(O)CC[C@H]2[C@@H]3CCC4=CC(=O)C=C[C@]4(C)[C@@]3(F)[C@@H](O)C[C@@]21C,0.687 ± 0.13,–
CC(=O)OCC(=O)[C@@]1(O)CC[C@H]2[C@@H]3CCC4=CC(=O)CC[C@]4(C)[C@H]3C(=O)C[C@@]21C,-0.495 ± 0.19,–
COc1cc(C(=O)N2CCOCC2)cc(OC)c1OC,0.485 ± 0.24,–
CCCCC(=O)O[C@]1(C(=O)CO)[C@@H](C)C[C@H]2[C@@H]3CCC4=CC(=O)C=C[C@]4(C)[C@@]3(F)[C@@H](O)C[C@@]21C,0.427 ± 0.75,-0.0902 ± 0.67
OC[C@@H](O)[C@@H](O)[C@H](O)[C@@H](O)CO,-0.0314 ± 1.1,–
S=C=Nc1ccc(N=C=S)cc1,0.265 ± 0.42,–
CN(N=O)C(=O)N[C@@H](C=O)[C@@H](O)[C@H](O)[C@H](O)CO [Streptozocin],0.896 ± 0.4,–
CC(=O)Nc1c(I)c(NC(C)=O)c(I)c(C(=O)O)c1I,0.308 ± 0.5,–
CCc1cc(C(N)=S)ccn1,0.148 ± 0.48,–
CC(=O)Nc1ccc(S(=O)(=O)Nc2ccc([N+](=O)[O-])cc2)cc1,0.921 ± 0.25,–
Cc1ccc(C(=O)Nc2ccc(S(=O)(=O)O)c3cc(S(=O)(=O)O)cc(S(=O)(=O)O)c23)cc1NC(=O)c1cccc(NC(=O)Nc2cccc(C(=O)Nc3cc(C(=O)Nc4ccc(S(=O)(=O)O)c5cc(S(=O)(=O)O)cc(S(=O)(=O)O)c45)ccc3C)c2)c1,-0.6446 ± 0.0052,–
NC(=O)c1ncn([C@@H]2O[C@H](CO)[C@@H](O)[C@H]2O)c1O,0.0431 ± 0.81,–
O=C(N/N=C/c1ccc([N+](=O)[O-])o1)c1ccc(O)cc1,-0.418 ± 0.44,–
CN1CCN(C(c2ccccc2)c2ccc(Cl)cc2)CC1 (configuration not stated),-2.86 ± 0.1,–
CC(C)(O/N=C(\C(=O)N[C@@H]1C(=O)N2C(C(=O)[O-])=C(C[n+]3ccccc3)CS[C@H]12)c1csc(N)n1)C(=O)O,-0.139 ± 0.3,–
Cc1ccc(/C(=C\CN2CCCC2)c2ccccn2)cc1,0.486 ± 0.22,–
CCc1c2c(nc3ccc(OC(=O)N4CCC(N5CCCCC5)CC4)cc13)-c1cc3c(c(=O)n1C2)COC(=O)[C@]3(O)CC,0.253 ± 0.24,-1.11 and -2.18
CCc1c2c(nc3ccc(OC(=O)N4CCC(N5CCCCC5)CC4)cc13)-c1cc3c(c(=O)n1C2)COC(=O)[C@]3(O)CC [Irinotecan HCl],1.03 ± 0.98,–
C[C@H]1[C@H](NC(=O)/C(=N\OC(C)(C)C(=O)O)c2csc(N)n2)C(=O)N1S(=O)(=O)O,0.0973 ± 0.087,–
CNCCC=C1c2ccccc2CCc2ccccc21,-0.299 ± 0.4,–
CCC1=C[C@@H]2CN(C1)Cc1c([nH]c3ccccc13)[C@@](C(=O)OC)(c1cc3c(cc1OC)N(C)[C@H]1[C@@](O)(C(=O)OC)[C@H](OC(C)=O)[C@]4(CC)C=CCN5CC[C@]31[C@@H]54)C2 [Vinorelbine Tartrate],1.02 ± 0.14,–
